One molecule from PMC8814028 can be followed below.

For this assay, the target named is T1, β-catenin (mouse (endogenous in cerebral cortex)), Q02248.
T1 chain: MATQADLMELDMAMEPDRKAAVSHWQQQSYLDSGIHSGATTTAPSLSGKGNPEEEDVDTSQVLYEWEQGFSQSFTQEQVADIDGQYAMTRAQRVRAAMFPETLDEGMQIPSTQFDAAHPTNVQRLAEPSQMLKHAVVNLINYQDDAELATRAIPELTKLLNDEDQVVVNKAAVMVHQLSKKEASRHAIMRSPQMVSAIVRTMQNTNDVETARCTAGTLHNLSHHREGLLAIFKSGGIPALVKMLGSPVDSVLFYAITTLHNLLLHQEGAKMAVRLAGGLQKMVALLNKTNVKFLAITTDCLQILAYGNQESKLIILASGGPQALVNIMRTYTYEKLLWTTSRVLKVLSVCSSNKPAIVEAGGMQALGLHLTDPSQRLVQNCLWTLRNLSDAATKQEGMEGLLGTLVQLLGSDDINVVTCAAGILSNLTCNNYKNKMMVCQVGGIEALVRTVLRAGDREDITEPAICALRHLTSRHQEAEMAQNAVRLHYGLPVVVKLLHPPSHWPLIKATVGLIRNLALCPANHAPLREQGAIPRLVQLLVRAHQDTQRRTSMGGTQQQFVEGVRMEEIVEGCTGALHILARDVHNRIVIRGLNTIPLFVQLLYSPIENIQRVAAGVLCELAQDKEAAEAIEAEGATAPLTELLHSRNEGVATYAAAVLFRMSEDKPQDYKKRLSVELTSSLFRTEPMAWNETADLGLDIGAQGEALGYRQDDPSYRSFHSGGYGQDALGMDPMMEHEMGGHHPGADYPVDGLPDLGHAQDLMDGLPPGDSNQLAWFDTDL
In words: co-IP; lysates of mice cerebral cortex (500 μg) incubated with 20 μg β-catenin antibody overnight at 4 °C, protein G-agarose, washed with cold PBS, blotted for TCF4; mouse normal IgG as negative control; mice: sham or MCAO, with or without LiCl and LY294002. The settings on record: remark: other sources report otherwise.

Results are given in words; binding and its absence hold for the method and conditions named. In cells and extracts the contact can be indirect. Some entries that bind do so weakly or less than the wild type.

B1: transcription factor TCF4, Q924A0 1-459 (protein)
chain: MPQLNGGGGDDLGANDELISFKDEGEQEEKNSENSSAERDLADVKSSLVNESETNQDSSSDSEAERRPPPRSESFRDKSRESLEEAAKRQDGGLFKGPPYPGYPFIMIPDLTSPYLPNGSLSPTARTYLQMKWPLLDVQAGSLQSRQTLKDARSPSPAHIVSNKVPVVQHPHHVHPLTPLITYSNEHFTPGNPPPHLPADVDPKTGIPRPPHPPDISPYYPLSPGTVGQIPHPLGWLVPQQGQPVYPITTGGFRHPYPTALTVNASMSRFPPHMVPPHHTLHTTGIPHPAIVTPTVKQESSQSDVGSLHSSKHQDSKKEEEKKKPHIKKPLNAFMLYMKEMRAKVVAECTLKESAAINQILGRRWHALSREEQAKYYELARKERQLHMQLYPGWSARDNYGKKKKRKRDKQPGETNEHSECFLNPCLSLPPITDLSAPKKCRARFGLDQQNNWCGPCSL
Take B1: the binding result was “binds”.
